The list does not hold the whole screen: it covers a few groups of compounds. Other doses and runs of a compound may be missing. T/C gives the treated animals as a percentage of the vehicle group. Some entries give survivors of the animals treated and no T/C: the source files T/C as zero there, which appears to mark a toxic dose or a test without result, not a measured value. Some survivor counts are full or nearly so, which does not show that the dose was tolerated: the source hardly ever lists a survival T/C far under the control, and the zero likely stands for such cases as well. Survivors were counted at the toxicity check, usually on the fifth day, unless a day is given; later deaths do not show. Schedules are NCI's codes, read here as Q, the interval in days (D) or hours (H), X, the number of doses. Some doses were run more than once; their values stand side by side, smallest first. For survival time, the PubChem record calls one and a half times the control and up active, and a quarter to a half above the control has no call in these data; cut-offs in other NCI protocols can differ. Some T/C values are followed by the survivors on the day toxicity was checked, most often the fifth; without a count or a note in brackets, all were alive then. Some T/C values are marked as having no survivor count here; that says nothing about deaths at the dose.
System: BDF1 mice, B16 melanoma ip, median survival T/C
Test: NCI In Vivo Anticancer Drug Screen. Data for tumor model B16 Melanoma (intraperitoneal) in B6D2F1 (BDF1) mice
Details: T/C endpoint: median survival time, higher T/C = longer survival
Procedure, shortened: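 Values are ratios of treated (T) to vehicle-control (C) measurements of survival or tumor size in tumor-bearing mice.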

[1] = dose: 25.0 mg/kg/injection, schedule: Q01DX009 (ip), vehicle: saline with Tween-80
[2] = dose: 50.0 mg/kg/injection, schedule: Q01DX009 (ip), vehicle: saline with Tween-80
[3] = dose: 100.0 mg/kg/injection, schedule: Q01DX009 (ip), vehicle: saline with Tween-80
[4] = dose: 25.0 mg/kg/injection, schedule: Q01DX009 (ip), vehicle: Klucel (hydroxypropylcellulose) (HPC)
[5] = dose: 3.12 mg/kg/injection, schedule: Q01DX009 (ip), vehicle: Klucel (hydroxypropylcellulose) (HPC)
[6] = dose: 6.25 mg/kg/injection, schedule: Q01DX009 (ip), vehicle: Klucel (hydroxypropylcellulose) (HPC)
[7] = dose: 12.5 mg/kg/injection, schedule: Q01DX009 (ip), vehicle: Klucel (hydroxypropylcellulose) (HPC)
[8] = dose: 50.0 mg/kg/injection, schedule: Q01DX009 (ip), vehicle: Klucel (hydroxypropylcellulose) (HPC)
[9] = dose: 100.0 mg/kg/injection, schedule: Q01DX009 (ip), vehicle: Klucel (hydroxypropylcellulose) (HPC)
[10] = dose: 12.5 mg/kg/injection, schedule: Q01DX009 (ip), vehicle: saline
[11] = dose: 25.0 mg/kg/injection, schedule: Q01DX009 (ip), vehicle: saline
[12] = dose: 50.0 mg/kg/injection, schedule: Q01DX009 (ip), vehicle: saline
[13] = dose: 100.0 mg/kg/injection, schedule: Q01DX009 (ip), vehicle: saline
[14] = dose: 20.0 mg/kg/injection, schedule: Q01DX009 (ip), vehicle: saline

CC1(C)CN1P(=O)(Nc1ccccn1)N1CC1(C)C (stereo unspecified)
T/C [1]: 102 % of control | T/C [2]: 94 % of control | T/C [3]: 105 % of control | T/C (dose: 200.0 mg/kg/injection, schedule: Q01DX009 (ip), vehicle: saline with Tween-80): 149 % of control

CCN(CC)CCOC(=O)C(O)(c1ccccc1)c1cc(C)cc(C)c1C (stereo unspecified)
T/C [4]: 103 % of control

COc1ccc(N(CCCl)CCCl)cc1OC
T/C [5]: 110 % of control | T/C [6]: 118 % of control | T/C [7]: 136 % of control | T/C [4]: 162 % of control | survivor count [8]: 10 of 10 | survivor count [9]: 10 of 10

C[N+](C)(C)Cc1ccccc1.F[P-](F)(F)(F)(F)F
T/C (dose: 5.0 mg/kg/injection, schedule: Q01DX009 (ip), vehicle: saline with Tween-80): 110 % of control | T/C (dose: 10.0 mg/kg/injection, schedule: Q01DX009 (ip), vehicle: saline with Tween-80): 100 % of control | T/C (dose: 20.0 mg/kg/injection, schedule: Q01DX009 (ip), vehicle: saline with Tween-80): 92 % of control

NP(=O)(N(CCCl)CCCl)N1CC1 (stereo unspecified)
T/C (dose: 6.25 mg/kg/injection, schedule: Q01DX009 (ip), vehicle: saline): 110 % of control [7 of 10 alive] | T/C [10]: 116 % of control [8 of 10 alive] | T/C (dose: 25.0 mg/kg/injection, schedule: Q01DX001 (ip), vehicle: saline): 108 % of control | T/C [11]: 96 % of control [9 of 10 alive] | T/C (dose: 25.0 mg/kg/injection, schedule: Q04DX003 (ip), vehicle: saline): 136 % of control | T/C (dose: 25.0 mg/kg/injection, schedule: Q08DX002 (ip), vehicle: saline): 113 % of control | T/C (dose: 50.0 mg/kg/injection, schedule: Q01DX001 (ip), vehicle: saline): 123 % of control | survivor count [12]: 6 of 10 | survivor count (dose: 50.0 mg/kg/injection, schedule: Q04DX003 (ip), vehicle: saline): 10 of 10 | T/C (dose: 50.0 mg/kg/injection, schedule: Q08DX002 (ip), vehicle: saline): 134 % of control | T/C (dose: 100.0 mg/kg/injection, schedule: Q01DX001 (ip), vehicle: saline): 123 % of control | survivor count [13]: 3 of 10 | survivor count (dose: 100.0 mg/kg/injection, schedule: Q04DX003 (ip), vehicle: saline): 4 of 10 | survivor count (dose: 100.0 mg/kg/injection, schedule: Q08DX002 (ip), vehicle: saline): 8 of 10 | survivor count (dose: 200.0 mg/kg/injection, schedule: Q01DX001 (ip), vehicle: saline): 8 of 10 | survivor count (dose: 200.0 mg/kg/injection, schedule: Q04DX003 (ip), vehicle: saline): 1 of 10 | survivor count (dose: 200.0 mg/kg/injection, schedule: Q08DX002 (ip), vehicle: saline): 2 of 10 | survivor count (dose: 400.0 mg/kg/injection, schedule: Q01DX001 (ip), vehicle: saline): 6 of 10 | survivor count (dose: 400.0 mg/kg/injection, schedule: Q04DX003 (ip), vehicle: saline): 0 of 10 | survivor count (dose: 400.0 mg/kg/injection, schedule: Q08DX002 (ip), vehicle: saline): 0 of 10

NC(Cc1ccc(N(CCF)CCCl)cc1)C(=O)O (stereo unspecified)
T/C [6]: 122 % of control | T/C (dose: 8.0 mg/kg/injection, schedule: Q01DX009 (ip), vehicle: Klucel (hydroxypropylcellulose) (HPC)): 127 % of control | T/C (dose: 12.0 mg/kg/injection, schedule: Q01DX009 (ip), vehicle: Klucel (hydroxypropylcellulose) (HPC)): 138 % of control | T/C [7]: 162 % of control | T/C (dose: 17.0 mg/kg/injection, schedule: Q01DX009 (ip), vehicle: Klucel (hydroxypropylcellulose) (HPC)): 157 % of control | T/C (dose: 18.0 mg/kg/injection, schedule: Q01DX009 (ip), vehicle: Klucel (hydroxypropylcellulose) (HPC)): 147 % of control | T/C [4]: 165 and 173 % of control | T/C (dose: 37.0 mg/kg/injection, schedule: Q01DX009 (ip), vehicle: Klucel (hydroxypropylcellulose) (HPC)): 121 % of control

CC(=O)SCC(Cl)Cl
T/C [1]: 100 % of control | T/C [2]: 104 % of control | T/C [3]: 116 % of control

CC(Cl)CN(CC(C)Cl)C(=O)OCC(N)C(=O)O (stereo unspecified)
T/C [10]: 104 and 121 % of control | T/C [11]: 116 and 123 % of control | T/C [12]: 104 and 121 % of control | T/C [13]: 104 and 108 % of control | T/C (dose: 200.0 mg/kg/injection, schedule: Q01DX009 (ip), vehicle: saline): 104 and 106 % of control | T/C (dose: 400.0 mg/kg/injection, schedule: Q01DX009 (ip), vehicle: saline): 106 % of control

FC(Cl)C(F)(F)Sc1ccc(Cl)cc1 (stereo unspecified)
T/C [8]: 101 % of control | T/C [9]: 105 % of control [9 of 10 alive] | T/C (dose: 200.0 mg/kg/injection, schedule: Q01DX009 (ip), vehicle: Klucel (hydroxypropylcellulose) (HPC)): 99 % of control [9 of 10 alive]

NCCF
T/C (dose: 1.25 mg/kg/injection, schedule: Q01DX009 (ip), vehicle: Klucel (hydroxypropylcellulose) (HPC)): 100 % of control [5 of 6 alive] | T/C (dose: 2.5 mg/kg/injection, schedule: Q01DX009 (ip), vehicle: Klucel (hydroxypropylcellulose) (HPC)): 106 % of control | survivor count (dose: 5.0 mg/kg/injection, schedule: Q01DX009 (ip), vehicle: Klucel (hydroxypropylcellulose) (HPC)): 0 of 6 | survivor count (dose: 10.0 mg/kg/injection, schedule: Q01DX009 (ip), vehicle: Klucel (hydroxypropylcellulose) (HPC)): 0 of 6

NC(=O)Nc1ccc(N(CCCl)CCCl)cc1
T/C (dose: 1.56 mg/kg/injection, schedule: Q01DX009 (ip), vehicle: Klucel (hydroxypropylcellulose) (HPC)): 104 and 110 % of control | T/C [5]: 108, 127, 133 % of control | T/C [6]: 124, 142 [9 of 10 alive], 145 % of control | T/C [7]: 147, 153, 191 % of control | survivor count [4]: 10 of 10 and 8 of 8 | survivor count [8]: 8 of 8

OC(CNCCCl)C(O)C(O)C(O)CNCCCl (stereo unspecified)
T/C (dose: 2.5 mg/kg/injection, schedule: Q01DX009 (ip), vehicle: saline, evaluated on day 45): 117 % of control | T/C (dose: 2.5 mg/kg/injection, schedule: Q01DX009 (ip), vehicle: saline, evaluated on day 60): 100 % of control | T/C (dose: 5.0 mg/kg/injection, schedule: Q01DX009 (ip), vehicle: saline, evaluated on day 45): 117 % of control | T/C (dose: 5.0 mg/kg/injection, schedule: Q01DX009 (ip), vehicle: saline, evaluated on day 60): 113 % of control | T/C (dose: 10.0 mg/kg/injection, schedule: Q01DX009 (ip), vehicle: saline, evaluated on day 45): 125 % of control | T/C (dose: 10.0 mg/kg/injection, schedule: Q01DX009 (ip), vehicle: saline, evaluated on day 60): 150 % of control | T/C [14]: 137 % of control | survivor count [14]: 6 of 6 | survivor count (dose: 40.0 mg/kg/injection, schedule: Q01DX009 (ip), vehicle: saline): 6 of 6

CCN(CC)CCN1CCN=C1Cc1ccccc1.O=[N+]([O-])c1cc([N+](=O)[O-])c(O)c([N+](=O)[O-])c1
T/C (dose: 50.0 mg/kg/injection, schedule: Q04DX003 (ip), vehicle: Klucel (hydroxypropylcellulose) (HPC)): 95 % of control [survivor count not shown] | T/C (dose: 100.0 mg/kg/injection, schedule: Q04DX003 (ip), vehicle: Klucel (hydroxypropylcellulose) (HPC)): 96 % of control [survivor count not shown] | T/C (dose: 200.0 mg/kg/injection, schedule: Q04DX003 (ip), vehicle: Klucel (hydroxypropylcellulose) (HPC)): 96 % of control [survivor count not shown]

From PubChem BioAssay AID192 (DTP/NCI, 2004)
